Reference: doi:10.1101/2025.09.03.674114
These are yes or no findings as the source states them, for the method shown. In cells and extracts the contact can be indirect. A yes stands for co-enrichment or nearness to the bait. Other partners may have been found.

Protein sequences, listed by entry. Tags and fused reporters are not part of them.
UniProt Q38SD2: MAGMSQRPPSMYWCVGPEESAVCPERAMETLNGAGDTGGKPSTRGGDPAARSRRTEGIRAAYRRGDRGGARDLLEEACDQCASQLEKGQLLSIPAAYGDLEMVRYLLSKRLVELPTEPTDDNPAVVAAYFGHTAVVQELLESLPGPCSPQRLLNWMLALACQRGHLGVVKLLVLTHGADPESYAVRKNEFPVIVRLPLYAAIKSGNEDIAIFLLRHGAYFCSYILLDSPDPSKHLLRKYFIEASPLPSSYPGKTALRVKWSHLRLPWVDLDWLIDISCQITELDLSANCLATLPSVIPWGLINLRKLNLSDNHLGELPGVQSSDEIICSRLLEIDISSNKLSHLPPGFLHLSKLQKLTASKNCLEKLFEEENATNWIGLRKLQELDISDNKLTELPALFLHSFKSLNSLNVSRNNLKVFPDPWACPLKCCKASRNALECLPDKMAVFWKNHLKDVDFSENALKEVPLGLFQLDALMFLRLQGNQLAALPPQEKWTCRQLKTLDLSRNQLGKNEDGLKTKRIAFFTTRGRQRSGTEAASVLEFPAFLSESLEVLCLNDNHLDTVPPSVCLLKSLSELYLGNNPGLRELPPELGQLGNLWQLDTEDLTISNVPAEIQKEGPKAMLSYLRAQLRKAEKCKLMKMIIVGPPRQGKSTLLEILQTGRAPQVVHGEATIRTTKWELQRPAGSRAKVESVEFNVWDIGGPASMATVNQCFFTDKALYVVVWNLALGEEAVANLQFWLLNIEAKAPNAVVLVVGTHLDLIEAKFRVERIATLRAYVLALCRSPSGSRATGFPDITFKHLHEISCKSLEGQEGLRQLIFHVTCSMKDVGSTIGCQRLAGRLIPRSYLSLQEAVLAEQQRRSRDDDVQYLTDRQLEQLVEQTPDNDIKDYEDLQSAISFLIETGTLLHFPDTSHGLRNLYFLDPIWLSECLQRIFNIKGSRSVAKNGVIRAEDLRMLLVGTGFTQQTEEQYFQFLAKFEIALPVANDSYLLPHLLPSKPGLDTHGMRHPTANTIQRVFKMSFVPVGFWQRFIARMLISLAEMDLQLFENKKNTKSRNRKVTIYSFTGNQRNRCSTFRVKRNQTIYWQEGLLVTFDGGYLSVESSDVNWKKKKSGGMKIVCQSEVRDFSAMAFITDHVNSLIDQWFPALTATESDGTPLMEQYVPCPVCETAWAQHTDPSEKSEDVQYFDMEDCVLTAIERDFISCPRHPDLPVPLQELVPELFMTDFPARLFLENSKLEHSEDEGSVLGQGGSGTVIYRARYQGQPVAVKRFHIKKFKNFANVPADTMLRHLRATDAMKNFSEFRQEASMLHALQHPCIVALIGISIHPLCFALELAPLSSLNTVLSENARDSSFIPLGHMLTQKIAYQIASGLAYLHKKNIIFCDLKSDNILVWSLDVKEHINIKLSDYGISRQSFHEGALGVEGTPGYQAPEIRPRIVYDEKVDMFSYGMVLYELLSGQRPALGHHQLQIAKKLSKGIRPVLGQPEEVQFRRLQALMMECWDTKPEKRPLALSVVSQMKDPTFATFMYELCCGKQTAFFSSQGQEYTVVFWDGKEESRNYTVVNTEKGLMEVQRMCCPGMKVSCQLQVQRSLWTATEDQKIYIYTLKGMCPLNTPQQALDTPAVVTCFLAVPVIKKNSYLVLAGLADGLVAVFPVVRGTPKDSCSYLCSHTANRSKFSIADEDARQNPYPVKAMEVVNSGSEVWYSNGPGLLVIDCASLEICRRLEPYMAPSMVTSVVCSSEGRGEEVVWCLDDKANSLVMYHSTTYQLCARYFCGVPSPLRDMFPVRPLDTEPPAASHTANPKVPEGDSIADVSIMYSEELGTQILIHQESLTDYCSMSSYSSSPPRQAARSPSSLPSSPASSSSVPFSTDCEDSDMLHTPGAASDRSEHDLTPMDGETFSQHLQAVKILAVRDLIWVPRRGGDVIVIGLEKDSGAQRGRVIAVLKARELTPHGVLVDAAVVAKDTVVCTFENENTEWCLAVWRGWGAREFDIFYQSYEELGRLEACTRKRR
UniProt Q5S007: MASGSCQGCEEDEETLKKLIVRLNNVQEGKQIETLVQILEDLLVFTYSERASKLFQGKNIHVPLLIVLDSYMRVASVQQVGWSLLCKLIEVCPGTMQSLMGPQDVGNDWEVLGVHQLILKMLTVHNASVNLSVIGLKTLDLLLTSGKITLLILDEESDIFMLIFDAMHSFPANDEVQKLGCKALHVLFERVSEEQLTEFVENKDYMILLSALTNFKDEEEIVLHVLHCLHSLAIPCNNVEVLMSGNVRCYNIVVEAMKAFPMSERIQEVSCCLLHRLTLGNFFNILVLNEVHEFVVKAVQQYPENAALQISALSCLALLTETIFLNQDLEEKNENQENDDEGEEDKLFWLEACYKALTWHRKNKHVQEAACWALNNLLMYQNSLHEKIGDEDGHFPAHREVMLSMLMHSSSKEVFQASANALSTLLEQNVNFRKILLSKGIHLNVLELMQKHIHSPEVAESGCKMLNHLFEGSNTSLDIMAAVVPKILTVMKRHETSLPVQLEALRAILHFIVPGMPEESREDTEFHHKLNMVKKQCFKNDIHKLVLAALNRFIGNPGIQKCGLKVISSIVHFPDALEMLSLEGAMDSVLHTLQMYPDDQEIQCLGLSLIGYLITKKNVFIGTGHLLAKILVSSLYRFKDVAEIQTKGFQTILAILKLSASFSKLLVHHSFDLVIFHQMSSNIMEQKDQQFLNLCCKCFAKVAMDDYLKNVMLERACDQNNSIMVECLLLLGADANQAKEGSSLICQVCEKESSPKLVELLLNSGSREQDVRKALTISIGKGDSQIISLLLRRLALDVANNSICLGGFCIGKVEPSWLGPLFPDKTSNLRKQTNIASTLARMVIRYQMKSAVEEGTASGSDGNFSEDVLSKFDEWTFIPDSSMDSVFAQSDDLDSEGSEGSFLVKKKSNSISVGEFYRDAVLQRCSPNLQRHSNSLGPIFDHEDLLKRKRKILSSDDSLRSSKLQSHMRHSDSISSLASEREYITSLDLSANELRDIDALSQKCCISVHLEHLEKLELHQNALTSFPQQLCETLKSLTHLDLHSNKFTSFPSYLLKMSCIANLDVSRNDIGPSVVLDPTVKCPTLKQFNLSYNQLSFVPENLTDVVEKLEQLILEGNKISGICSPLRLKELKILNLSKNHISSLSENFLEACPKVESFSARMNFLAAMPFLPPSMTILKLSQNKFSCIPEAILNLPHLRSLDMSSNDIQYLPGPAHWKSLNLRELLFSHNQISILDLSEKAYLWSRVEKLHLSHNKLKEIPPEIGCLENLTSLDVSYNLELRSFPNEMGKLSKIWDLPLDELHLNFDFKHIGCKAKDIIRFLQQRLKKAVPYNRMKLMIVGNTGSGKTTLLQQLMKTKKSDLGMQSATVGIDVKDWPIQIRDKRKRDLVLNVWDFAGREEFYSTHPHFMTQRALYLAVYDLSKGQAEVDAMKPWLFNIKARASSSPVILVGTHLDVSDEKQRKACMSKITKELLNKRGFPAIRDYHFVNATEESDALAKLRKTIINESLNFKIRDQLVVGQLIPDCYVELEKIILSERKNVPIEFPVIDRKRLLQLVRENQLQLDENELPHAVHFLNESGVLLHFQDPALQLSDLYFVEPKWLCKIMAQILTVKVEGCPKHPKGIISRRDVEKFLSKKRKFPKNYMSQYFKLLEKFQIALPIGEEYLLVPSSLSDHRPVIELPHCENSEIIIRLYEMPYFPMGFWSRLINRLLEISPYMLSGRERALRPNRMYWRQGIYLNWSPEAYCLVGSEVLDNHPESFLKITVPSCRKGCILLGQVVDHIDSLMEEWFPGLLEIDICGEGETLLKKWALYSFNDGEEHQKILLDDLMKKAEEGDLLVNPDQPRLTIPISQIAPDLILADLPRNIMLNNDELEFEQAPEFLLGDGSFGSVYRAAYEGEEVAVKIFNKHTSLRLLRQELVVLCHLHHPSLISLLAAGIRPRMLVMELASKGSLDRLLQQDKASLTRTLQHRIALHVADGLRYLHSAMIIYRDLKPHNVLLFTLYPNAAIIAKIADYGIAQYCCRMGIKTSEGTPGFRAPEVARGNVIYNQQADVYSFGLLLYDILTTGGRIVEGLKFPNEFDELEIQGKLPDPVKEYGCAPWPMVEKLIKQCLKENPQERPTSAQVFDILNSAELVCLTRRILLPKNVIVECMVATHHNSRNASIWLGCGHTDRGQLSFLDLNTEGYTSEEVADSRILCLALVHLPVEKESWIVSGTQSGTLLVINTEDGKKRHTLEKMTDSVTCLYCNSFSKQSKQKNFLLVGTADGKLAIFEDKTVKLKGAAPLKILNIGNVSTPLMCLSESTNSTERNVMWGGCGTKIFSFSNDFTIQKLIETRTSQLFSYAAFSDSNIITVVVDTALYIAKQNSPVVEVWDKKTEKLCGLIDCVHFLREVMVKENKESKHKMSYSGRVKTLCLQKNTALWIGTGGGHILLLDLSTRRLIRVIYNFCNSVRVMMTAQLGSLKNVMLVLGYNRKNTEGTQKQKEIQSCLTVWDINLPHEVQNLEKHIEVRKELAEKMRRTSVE
UniProt P62993: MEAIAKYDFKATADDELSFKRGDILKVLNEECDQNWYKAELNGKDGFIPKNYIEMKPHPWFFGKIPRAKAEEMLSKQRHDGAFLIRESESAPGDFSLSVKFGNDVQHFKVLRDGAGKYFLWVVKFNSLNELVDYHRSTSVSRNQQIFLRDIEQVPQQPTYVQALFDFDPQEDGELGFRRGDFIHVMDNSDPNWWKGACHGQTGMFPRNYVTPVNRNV
UniProt Q13596: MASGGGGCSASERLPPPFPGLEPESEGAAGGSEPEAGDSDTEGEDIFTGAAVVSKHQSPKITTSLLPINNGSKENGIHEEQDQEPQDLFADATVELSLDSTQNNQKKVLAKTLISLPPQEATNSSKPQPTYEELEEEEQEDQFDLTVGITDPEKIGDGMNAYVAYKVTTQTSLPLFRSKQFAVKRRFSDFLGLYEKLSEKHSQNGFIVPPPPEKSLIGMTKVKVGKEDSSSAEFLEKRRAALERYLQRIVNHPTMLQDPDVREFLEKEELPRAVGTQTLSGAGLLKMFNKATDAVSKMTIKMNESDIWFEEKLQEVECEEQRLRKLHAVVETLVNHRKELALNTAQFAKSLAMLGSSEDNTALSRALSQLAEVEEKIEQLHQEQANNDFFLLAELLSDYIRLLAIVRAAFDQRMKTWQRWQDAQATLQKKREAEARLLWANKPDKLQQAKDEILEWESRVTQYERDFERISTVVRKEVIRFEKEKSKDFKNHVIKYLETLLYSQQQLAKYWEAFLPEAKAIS
UniProt P68363: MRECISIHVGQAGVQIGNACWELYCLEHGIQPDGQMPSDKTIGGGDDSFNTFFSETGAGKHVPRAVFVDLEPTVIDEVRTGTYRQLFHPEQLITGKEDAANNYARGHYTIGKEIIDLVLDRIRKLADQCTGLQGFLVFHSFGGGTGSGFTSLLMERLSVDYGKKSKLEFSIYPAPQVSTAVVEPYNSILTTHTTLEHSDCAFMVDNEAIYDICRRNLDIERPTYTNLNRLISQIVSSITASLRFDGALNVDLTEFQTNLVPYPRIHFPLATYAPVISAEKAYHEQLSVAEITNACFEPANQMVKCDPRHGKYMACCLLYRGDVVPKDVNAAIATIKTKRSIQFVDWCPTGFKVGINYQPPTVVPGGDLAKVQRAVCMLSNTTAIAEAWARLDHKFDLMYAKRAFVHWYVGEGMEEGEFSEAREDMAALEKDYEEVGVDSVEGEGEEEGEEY
UniProt P61006: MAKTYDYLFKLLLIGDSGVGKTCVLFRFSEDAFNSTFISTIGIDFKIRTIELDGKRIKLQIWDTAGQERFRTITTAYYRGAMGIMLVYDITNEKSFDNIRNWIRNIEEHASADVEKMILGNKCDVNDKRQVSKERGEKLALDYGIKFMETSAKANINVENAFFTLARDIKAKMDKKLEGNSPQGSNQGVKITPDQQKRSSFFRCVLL

Assays:
[1] = molecular target: TurboID-LRRK1 fusion construct (Leucine-rich repeat kinase 1) (UniProt Q38SD2); assay: proximity labelling
[2] = molecular target: 3xFLAG-turboID-LRRK2 (Leucine-rich repeat kinase 2) (UniProt Q5S007); assay: proximity labelling

In the case of Grb2 (from UniProt P62993 1-217), the binding [1] is reported as “binds”.

In the case of “sorting nexin SNX1 (from UniProt Q13596 1-522)”, the binding [1] is reported as “binds”.

With TUBA1B (from UniProt P68363 1-451) the binding [1] was “binds”.

For “Epidermal Growth Factor Receptor (from UniProt P00533 25-1210)”, the binding [1] was “binds”.

With Rab8A (from UniProt P61006 1-207) the binding [2] was “binds” and the binding [1] was “binds”.

B1: Rab39A (protein, UniProt Q14964 1-217)
chain: METIWIYQFRLIVIGDSTVGKSCLLHRFTQGRFPGLRSPACDPTVGVDFFSRLLEIEPGKRIKLQLWDTAGQERFRSITRSYYRNSVGGFLVFDITNRRSFEHVKDWLEEAKMYVQPFRIVFLLVGHKCDLASQRQVTREEAEKLSADCGMKYIETSAKDATNVEESFTILTRDIYELIKKGEICIQDGWEGVKSGFVPNTVHSSEEAVKPRKECFC
With B1 the binding [2] was “binds” and the binding [1] was “binds”.

B2: Rab34 (protein, UniProt Q9BZG1 1-259)
chain: MNILAPVRRDRVLAELPQCLRKEAALHGHKDFHPRVTCACQEHRTGTVGFKISKVIVVGDLSVGKTCLINRFCKDTFDKNYKATIGVDFEMERFEVLGIPFSLQLWDTAGQERFKCIASTYYRGAQAIIIVFNLNDVASLEHTKQWLADALKENDPSSVLLFLVGSKKDLSTPAQYALMEKDALQVAQEMKAEYWAVSSLTGENVREFFFRVAALTFEANVLAELEKSGARRIGDVVRINSDDSNLYLTASKKKPTCCP
With B2 the binding [1] was “binds”.

B3: GOLGA2 (protein, UniProt Q08379 1-1002)
chain: MWPQPRLPPRPAMSEETRQSKLAAAKKKLREYQQRNSPGVPTGAKKKKKIKNGSNPETTTSGGCHSPEDTPKDNAATLQPSDDTVLPGGVPSPGASLTSMAASQNHDADNVPNLMDETKTFSSTESLRQLSQQLNGLVCESATCVNGEGPASSANLKDLESRYQQLAVALDSSYVTNKQLNITIEKLKQQNQEITDQLEEEKKECHQKQGALREQLQVHIQTIGILVSEKAELQTALAHTQHAARQKEGESEDLASRLQYSRRRVGELERALSAVSTQQKKADRYNKELTKERDALRLELYKNTQSNEDLKQEKSELEEKLRVLVTEKAGMQLNLEELQKKLEMTELLLQQFSSRCEAPDANQQLQQAMEERAQLEAHLGQVMESVRQLQMERDKYAENLKGESAMWRQRMQQMSEQVHTLREEKECSMSRVQELETSLAELRNQMAEPPPPEPPAGPSEVEQQLQAEAEHLRKELEGLAGQLQAQVQDNEGLSRLNREQEERLLELERAAELWGEQAEARRQILETMQNDRTTISRALSQNRELKEQLAELQSGFVKLTNENMEITSALQSEQHVKRELGKKLGELQEKLSELKETVELKSQEAQSLQQQRDQYLGHLQQYVAAYQQLTSEKEVLHNQLLLQTQLVDQLQQQEAQGKAVAEMARQELQETQERLEAATQQNQQLRAQLSLMAHPGEGDGLDREEEEDEEEEEEEAVAVPQPMPSIPEDLESREAMVAFFNSAVASAEEEQARLRGQLKEQRVRCRRLAHLLASAQKEPEAAAPAPGTGGDSVCGETHRALQGAMEKLQSRFMELMQEKADLKERVEELEHRCIQLSGETDTIGEYIALYQSQRAVLKERHREKEEYISRLAQDKEEMKVKLLELQELVLRLVGDRNEWHGRFLAAAQNPADEPTSGAPAPQELGAANQQGDLCEVSLAGSVEPAQGEAREGSPRDNPTAQQIMQLLREMQNPRERPGLGSNPCIPFFYRADENDEVKITVI
B3 was tested, and the binding [2] was “binds”.

B4: DSN1 (protein, UniProt Q9H410 1-356)
chain: MTSVTRSEIIDEKGPVMSKTHDHQLESSLSPVEVFAKTSASLEMNQGVSEERIHLGSSPKKGGNCDLSHQERLQSKSLHLSPQEQSASYQDRRQSWRRASMKETNRRKSLHPIHQGITELSRSISVDLAESKRLGCLLLSSFQFSIQKLEPFLRDTKGFSLESFRAKASSLSEELKHFADGLETDGTLQKCFEDSNGKASDFSLEASVAEMKEYITKFSLERQTWDQLLLHYQQEAKEILSRGSTEAKITEVKVEPMTYLGSSQNEVLNTKPDYQKILQNQSKVFDCMELVMDELQGSVKQLQAFMDESTQCFQKVSVQLGKRSMQQLDPSPARKLLKLQLQNPPAIHGSGSGSCQ
In the case of B4, the binding [2] is reported as “binds”.

B5: Vps52 (protein, UniProt Q8N1B4 1-723)
chain: MAAAATMAAAARELVLRAGTSDMEEEEGPLAGGPGLQEPLQLGELDITSDEFILDEVDVHIQANLEDELVKEALKTGVDLRHYSKQVELELQQIEQKSIRDYIQESENIASLHNQITACDAVLERMEQMLGAFQSDLSSISSEIRTLQEQSGAMNIRLRNRQAVRGKLGELVDGLVVPSALVTAILEAPVTEPRFLEQLQELDAKAAAVREQEARGTAACADVRGVLDRLRVKAVTKIREFILQKIYSFRKPMTNYQIPQTALLKYRFFYQFLLGNERATAKEIRDEYVETLSKIYLSYYRSYLGRLMKVQYEEVAEKDDLMGVEDTAKKGFFSKPSLRSRNTIFTLGTRGSVISPTELEAPILVPHTAQRGEQRYPFEALFRSQHYALLDNSCREYLFICEFFVVSGPAAHDLFHAVMGRTLSMTLKHLDSYLADCYDAIAVFLCIHIVLRFRNIAAKRDVPALDRYWEQVLALLWPRFELILEMNVQSVRSTDPQRLGGLDTRPHYITRRYAEFSSALVSINQTIPNERTMQLLGQLQVEVENFVLRVAAEFSSRKEQLVFLINNYDMMLGVLMERAADDSKEVESFQQLLNARTQEFIEELLSPPFGGLVAFVKEAEALIERGQAERLRGEEARVTQLIRGFGSSWKSSVESLSQDVMRSFTNFRNGTSIIQGALTQLIQLYHRFHRVLSQPQLRALPARAELINIHHLMVELKKHKPNF
With B5 the binding [2] was “binds” and the binding [1] was “binds”.
